Laboratory results from patent publication US11472862B2, “IL13Rα2 peptide and its uses” (priority 2017, dated 2022).
At least one peptide structure holds a part that was inferred or is arguable (an end, a ring closure or a residue). Residues, ends and D or L forms follow the SMILES beside them.

Tests used:
[1] = test system: KM12SM cells; test: Cell adhesion assay to Matrigel; type: cell-based, human; details: for Inhibition of IL-13-stimulated cell adhesion to Matrigel: with IL-13, peptide 1 μg/ml
Protocol: (§1) Recombinant human IL13 was used at […] (13) and was purchased from PeproTech. IL13Rα2-derived peptides (IL13Rα2D1: GSETWKTIITKN, SEQ ID NO: 3; IL13Rα2D1S: WKTIITKN, SEQ ID NO: 1; IL13Rα2Nter: FEIVDPGY, SEQ ID NO: 14; IL13Rα2Cter WSIPLGPI, SEQ ID NO: 15; IL13Rα2D1S-1A: WATIITKN, SEQ ID NO: 16; IL13Rα2D1S-2A WKAIITKN, SEQ ID NO: 17; IL13Rα2D1S-3A WKTAITKN, SEQ ID NO: 18; IL13Rα2D1S-4A WKTIATKN, SEQ ID NO: 19; IL13Rα2D1S-5A WKTIIAKN, SEQ ID NO: 20; IL13Rα2D1S-6A WKTIITAN, SEQ ID NO: 21) were synthesized using solid phase chemistry with a Focus XC instrument (AAPPtec). The enantio version D-IL13Rα2D1 (D-D1) peptide (GSETWKTIITKN, SEQ ID NO: 3) composed entirely by D-amino acids was purchased from Proteogenix (Schiltigheim, France). Peptides were used at 1/μg/mL in the different experiments.
Binding of D1 peptide to IL-13 was monitored by surface plasmon resonance on a BIAcore 3000 instrument (BIAcore Inc, Switzerland). IL-13 was covalently amino coupled to a CM-5 sensor chip. An immobilization level of 7700 RU was obtained. A nonderivatized flow cell was used as a control. The interaction between D1 peptide and the immobilized IL13 was determined by changes in the RU at different D1 concentrations. Cell Signaling Analysis Cancer cells were incubated 3 h in DMEM without serum, detached with 2 mM EDTA, washed and treated with IL-13 (PeproTech) (10 ng/ml) for different times in presence or absence of IL13Rα2D1 peptide. Then, cells were lysed with lysis buffer (1% Igepal, 50 mM Tris-HCl, 100 mM NaCl, 2 mM MgCl2, 10% glycerol, protease inhibitors (Complete Mini, Roche) and phosphatase inhibitor cocktails 2 and 3 (Sigma-Aldrich)). Protein extracts (60 μg) were separated in SDS-PAGE and transferred to nitrocellulose membranes, which were incubated with primary antibodies, washed and incubated with HRP-conjugated secondary antibodies (Sigma-Aldrich). […] Proliferation Assays Cancer cells were seeded at 1×10^4 cells/well on 96-well plates and were incubated for 48 h at 37° C. in DMEM with 0.5% serum in presence of IL-13 (10 ng/ml) and the indicated peptides, followed by 1 h incubation with Thyazolyl Blue Tretrazolium Bromide (MTT) (0.6 mg/mL) (Sigma-Aldrich). Cell proliferation was determined by absorbance at 560 nm and comparison with control cells collected ab initium. […] Bound cells were lysed with 1% SDS in PBS, and the extent of the adhesion was quantified using a fluorescence analyzer (POLARstar Galaxy, BMG Labtechnologies). […] Effective migration speed was calculated from the distance covered by cells in 24 h in each side of the wound. […] After 48 h, non-invading cells were removed from the upper surface of the filter, and cells that migrated through the filter were fixed with 4% paraformaldehyde (Sigma-Aldrich), stained with crystal violet and counted under a microscope. […]

[2] = test system: SW620 cells; test: Cell adhesion assay to Matrigel; type: cell-based, human
[3] = test system: KM12SM cells; test: Wound healing assay (cell migration); type: cell-based, human
[4] = test system: SW620 cells; test: Wound healing assay (cell migration); type: cell-based, human
[5] = test system: KM12SM cells; test: Cell invasion assay through Matrigel; type: cell-based, human; details: for Inhibition of IL-13-stimulated cell invasion through Matrigel: with IL-13, peptide 1 μg/ml, 48 h
Protocol: as §1
(§2) Binding of D1 peptide to IL-13 was monitored by surface plasmon resonance on a BIAcore 3000 instrument (BIAcore Inc, Switzerland). IL-13 was covalently amino coupled to a CM-5 sensor chip. An immobilization level of 7700 RU was obtained. A nonderivatized flow cell was used as a control. The interaction between D1 peptide and the immobilized IL13 was determined by changes in the RU at different D1 concentrations. Cell Signaling Analysis Cancer cells were incubated 3 h in DMEM without serum, detached with 2 mM EDTA, washed and treated with IL-13 (PeproTech) (10 ng/ml) for different times in presence or absence of IL13Rα2D1 peptide. […] Cell proliferation was determined by absorbance at 560 nm and comparison with control cells collected ab initium. […] Bound cells were lysed with 1% SDS in PBS, and the extent of the adhesion was quantified using a fluorescence analyzer (POLARstar Galaxy, BMG Labtechnologies). […] Effective migration speed was calculated from the distance covered by cells in 24 h in each side of the wound. […] After 48 h, non-invading cells were removed from the upper surface of the filter, and cells that migrated through the filter were fixed with 4% paraformaldehyde (Sigma-Aldrich), stained with crystal violet and counted under a microscope. […]

[6] = test system: SW620 cells; test: Cell invasion assay through Matrigel; type: cell-based, human
[7] = test system: KM12SM cells; test: MTT proliferation assay; type: cell-based, human; details: for Inhibition of IL-13-stimulated cell proliferation (MTT): with IL-13, peptide 1 μg/ml, 48 h
Protocol: as §1, §2

[8] = test system: SW620 cells; test: MTT proliferation assay; type: cell-based, human
[9] = test system: U87 glioblastoma cells; test: Wound healing assay (cell migration); type: cell-based; details: with IL-13, peptide 1 μg/ml
[10] = test system: U118 glioblastoma cells; test: Wound healing assay (cell migration); type: cell-based; details: with IL-13, peptide 1 μg/ml
[11] = test system: U87 glioblastoma cells; test: Cell invasion assay through Matrigel; type: cell-based; details: with IL-13, peptide 1 μg/ml
[12] = test system: U118 glioblastoma cells; test: Cell invasion assay through Matrigel; type: cell-based; details: with IL-13, peptide 1 μg/ml
[13] = test system: U87 glioblastoma cells; test: MTT proliferation assay; type: cell-based; details: with IL-13, peptide 1 μg/ml
[14] = test system: U118 glioblastoma cells; test: MTT proliferation assay; type: cell-based; details: with IL-13, peptide 1 μg/ml
[15] = test system: IL-13 mediated cell signaling (FAK, Src, AKT, ERK1/2 phosphorylation) in KM12SM cells; test: Cell signaling analysis by Western blotting; type: cell-based, human; details: IL-13 10 ng/ml, Western blot
[16] = test system: IL-13 mediated cell signaling (FAK, Src, AKT, ERK1/2 phosphorylation) in U87 cells; test: Cell signaling analysis by Western blotting; type: cell-based; details: IL-13 10 ng/ml, Western blot
[17] = test system: IL-13 mediated cell signaling in SW620 cells; test: Cell signaling analysis by Western blotting; type: cell-based, human; details: Western blot
[18] = test system: IL-13 mediated cell signaling in U118 cells; test: Cell signaling analysis by Western blotting; type: cell-based; details: Western blot
[19] = test system: KM12SM cells; test: Liver homing (liver colonization) experiment, RT-PCR of human GAPDH in liver; type: in vivo, nude mice; details: cells treated with peptide, with or without IL-13; intrasplenic inoculation; 48 h
[20] = with IL-13, peptide 1 μg/ml, 24 h
[21] = with IL-13, peptide 1 μg/ml, 48 h

CC[C@H](C)[C@H](NC(=O)[C@@H](NC(=O)[C@H](CCCCN)NC(=O)[C@H](Cc1c[nH]c2ccccc12)NC(=O)[C@@H](NC(=O)[C@H](CCC(=O)O)NC(=O)[C@H](CO)NC(=O)CN)[C@@H](C)O)[C@@H](C)O)C(=O)N[C@H](C(=O)N[C@H](C(=O)N[C@@H](CCCCN)C(=O)N[C@@H](CC(N)=O)C(=O)O)[C@@H](C)O)[C@@H](C)CC [D1 peptide, GSETWKTIITKN] (H-GSETWKTIITKN-OH)
Inhibition of IL-13-mediated cell adhesion, dose dependence ([1]; IL-13 20 ng/ml, D1 peptide from 10 ng/ml to 5 μg/ml): progressive increase in the IL-13 blocking capacity at the highest doses
Inhibition of IL-13-stimulated cell adhesion to Matrigel [1]: near complete inhibition of the IL-13 prometastatic effects
Inhibition of IL-13-stimulated cell adhesion to Matrigel ([1]; listed as D1): inhibit cell adhesion, invasion and proliferation
Effect of peptide alone on basal cell adhesion ([1]; without IL-13, peptide 1 μg/ml): did not change the basal properties of the cells
Inhibition of IL-13-stimulated cell adhesion to Matrigel ([2]; with IL-13, peptide 1 μg/ml): near complete inhibition of the IL-13 prometastatic effects
Effect of peptide alone on basal cell adhesion ([2]; without IL-13, peptide 1 μg/ml): did not change the basal properties of the cells
Inhibition of IL-13-stimulated cell migration (effective migration speed) [3, 20]: near complete inhibition of the IL-13 prometastatic effects
Effect of peptide alone on basal cell migration ([3]; without IL-13, peptide 1 μg/ml): did not change the basal properties of the cells
Inhibition of IL-13-stimulated cell migration (effective migration speed) [4, 20]: near complete inhibition of the IL-13 prometastatic effects
Effect of peptide alone on basal cell migration ([4]; without IL-13, peptide 1 μg/ml): did not change the basal properties of the cells
Inhibition of IL-13-stimulated cell invasion through Matrigel [5]: near complete inhibition of the IL-13 prometastatic effects
Inhibition of IL-13-stimulated cell invasion through Matrigel ([5]; listed as D1): inhibit cell adhesion, invasion and proliferation
Effect of peptide alone on basal cell invasion ([5]; without IL-13, peptide 1 μg/ml): did not change the basal properties of the cells
Inhibition of IL-13-stimulated cell invasion through Matrigel [6, 21]: near complete inhibition of the IL-13 prometastatic effects
Effect of peptide alone on basal cell invasion ([6]; without IL-13, peptide 1 μg/ml): did not change the basal properties of the cells
Inhibition of IL-13-stimulated cell proliferation (MTT) [7]: near complete inhibition of the IL-13 prometastatic effects
Inhibition of IL-13-stimulated cell proliferation (MTT) ([7]; listed as D1): inhibit cell adhesion, invasion and proliferation
Effect of peptide alone on basal cell proliferation ([7]; without IL-13, peptide 1 μg/ml): did not change the basal properties of the cells
Inhibition of IL-13-stimulated cell proliferation (MTT) [8, 21]: near complete inhibition of the IL-13 prometastatic effects
Effect of peptide alone on basal cell proliferation ([8]; without IL-13, peptide 1 μg/ml): did not change the basal properties of the cells
Inhibition of IL-13-stimulated cell migration [9]: abolished IL-13 effects on invasion, migration and proliferation
Inhibition of IL-13-stimulated cell migration [10]: abolished IL-13 effects on invasion, migration and proliferation
Inhibition of IL-13-stimulated cell invasion [11]: abolished IL-13 effects on invasion, migration and proliferation
Inhibition of IL-13-stimulated cell invasion [12]: abolished IL-13 effects on invasion, migration and proliferation
Inhibition of IL-13-stimulated cell proliferation (MTT) [13]: abolished IL-13 effects on invasion, migration and proliferation
Inhibition of IL-13-stimulated cell proliferation (MTT) [14]: abolished IL-13 effects on invasion, migration and proliferation
Inhibition of IL-13-induced phosphorylation of FAK, Src, AKT and ERK1/2 [15]: significant decrease in the phosphorylation of the four downstream mediators
Inhibition of IL-13-induced activation of FAK, Src, AKT and ERK1/2 [16]: fully blocked
Inhibition of IL-13-induced cell signaling (FAK, JNK, ERK1/2, Src, AKT phosphorylation) [17]: overall results were quite similar
Inhibition of IL-13-induced cell signaling (FAK, JNK, ERK1/2, Src, AKT phosphorylation) [18]: overall results were quite similar
Liver colonization by KM12SM cells (human GAPDH amplification in liver) [19]: did not colonize the liver
